Reference: doi:10.1101/2025.11.18.689056
These are yes or no findings as the source states them, for the method shown. Binding seen in cells or lysates may run through a third protein. Some binding calls cover weakened binding; strength is not graded here.

B1: UPF1 (Up-frameshift Protein 1) (protein, UniProt Q92900 1-1129)
chain: MSVEAYGPSSQTLTFLDTEEAELLGADTQGSEFEFTDFTLPSQTQTPPGGPGGPGGGGAGGPGGAGAGAAAGQLDAQVGPEGILQNGAVDDSVAKTSQLLAELNFEEDEEDTYYTKDLPIHACSYCGIHDPACVVYCNTSKKWFCNGRGNTSGSHIVNHLVRAKCKEVTLHKDGPLGETVLECYNCGCRNVFLLGFIPAKADSVVVLLCRQPCASQSSLKDINWDSSQWQPLIQDRCFLSWLVKIPSEQEQLRARQITAQQINKLEELWKENPSATLEDLEKPGVDEEPQHVLLRYEDAYQYQNIFGPLVKLEADYDKKLKESQTQDNITVRWDLGLNKKRIAYFTLPKTDSGNEDLVIIWLRDMRLMQGDEICLRYKGDLAPLWKGIGHVIKVPDNYGDEIAIELRSSVGAPVEVTHNFQVDFVWKSTSFDRMQSALKTFAVDETSVSGYIYHKLLGHEVEDVIIKCQLPKRFTAQGLPDLNHSQVYAVKTVLQRPLSLIQGPPGTGKTVTSATIVYHLARQGNGPVLVCAPSNIAVDQLTEKIHQTGLKVVRLCAKSREAIDSPVSFLALHNQIRNMDSMPELQKLQQLKDETGELSSADEKRYRALKRTAERELLMNADVICCTCVGAGDPRLAKMQFRSILIDESTQATEPECMVPVVLGAKQLILVGDHCQLGPVVMCKKAAKAGLSQSLFERLVVLGIRPIRLQVQYRMHPALSAFPSNIFYEGSLQNGVTAADRVKKGFDFQWPQPDKPMFFYVTQGQEEIASSGTSYLNRTEAANVEKITTKLLKAGAKPDQIGIITPYEGQRSYLVQYMQFSGSLHTKLYQEVEIASVDAFQGREKDFIILSCVRANEHQGIGFLNDPRRLNVALTRARYGVIIVGNPKALSKQPLWNHLLNYYKEQKVLVEGPLNNLRESLMQFSKPRKLVNTINPGARFMTTAMYDAREAIIPGSVYDRSSQGRPSSMYFQTHDQIGMISAGPSHVAAMNIPIPFNLVMPPMPPPGYFGQANGPAAGRGTPKGKTGRGGRQKNRFGLPGPSQTNLPNSQASQDVASQPFSQGALTQGYISMSQPSQMSQPGLSQPELSQDSYLGDEFKSQIDVALSQDSTYQGERAYQHGGVTGLSQY
B2: CWC22 (Spliceosome associated protein homolog) (protein, UniProt Q9HCG8 1-908)
chain: MKSSVAQIKPSSGHDRRENLNSYQRNSSPEDRYEEQERSPRDRDYFDYSRSDYEHSRRGRSYDSSMESRNRDREKRRERERDTDRKRSRKSPSPGRRNPETSVTQSSSAQDEPATKKKKDELDPLLTRTGGAYIPPAKLRMMQEQITDKNSLAYQRMSWEALKKSINGLINKVNISNISIIIQELLQENIVRGRGLLSRSVLQAQSASPIFTHVYAALVAIINSKFPQIGELILKRLILNFRKGYRRNDKQLCLTASKFVAHLINQNVAHEVLCLEMLTLLLERPTDDSVEVAIGFLKECGLKLTQVSPRGINAIFERLRNILHESEIDKRVQYMIEVMFAVRKDGFKDHPIILEGLDLVEEDDQFTHMLPLEDDYNPEDVLNVFKMDPNFMENEEKYKAIKKEILDEGDTDSNTDQDAGSSEEDEEEEEEEGEEDEEGQKVTIHDKTEINLVSFRRTIYLAIQSSLDFEECAHKLLKMEFPESQTKELCNMILDCCAQQRTYEKFFGLLAGRFCMLKKEYMESFEGIFKEQYDTIHRLETNKLRNVAKMFAHLLYTDSLPWSVLECIKLSEETTTSSSRIFVKIFFQELCEYMGLPKLNARLKDETLQPFFEGLLPRDNPRNTRFAINFFTSIGLGGLTDELREHLKNTPKVIVAQKPDVEQNKSSPSSSSSASSSSESDSSDSDSDSSDSSSESSSEESDSSSISSHSSASANDVRKKGHGKTRSKEVDKLIRNQQTNDRKQKERRQEHGHQETRTERERRSEKHRDQNSSGSNWRDPITKYTSDKDVPSERNNYSRVANDRDQEMHIDLENKHGDPKKKRGERRNSFSENEKHTHRIKDSENFRRKDRSKSKEMNRKHSGSRSDEDRYQNGAERRWEKSSRYSEQSRESKKNQDRRREKSPAKQK

Experiments:
[1] = target: FRG1 (FSHD Region Gene 1) (human (endogenous in MCF7)) (UniProt Q14331); test: co-IP
[2] = target: PRP8 (Pre-mRNA processing factor 8) (human (endogenous in MCF7)) (UniProt Q6P2Q9); test: co-IP

| Binder | binding [1] | binding [2] |
| --- | --- | --- |
| B1 | binds | – |
| B2 | – | binds |
